Laboratory results taken from patent publication US20260224701A1.

Target: Cynomolgus 4Ig-B7-H3 extracellular domain (cynomolgus)
Assay: biolayer interferometry (Octet), antibody captured on the probe

B1: MIL33B-H3-hIgG1 (antibody, V domains shown)
VH: QVQLVQSGAEVKKPGASVKVSCKASGYTFTSYVMHWVRQAPGQRLEWMGYINSYSDGTKYNEKFKGRVTITRDTSASTAYMELSSLRSEDTAVYYCARWGGLGNGAMDYWGQGTLVTVSS
VL: EIVLTQSPATLSLSPGERATLSCSVSSSVNYMHWYQQKPGQAPRRLIYDTSKLASGIPARFSGSGSGTDYTLTISSLEPEDFAVYYCQQWTSNPLTFGQGTKLEIK
- binding: binds

These are yes or no findings as the source states them, for the method shown. Binding calls can cover weak binding; strength is not graded here.
